In all, about 330,000 compounds went through this assay and about 7,700 (2.3%) were called active. The inconclusive results got no clear call from the source; some entries with a clear call stand among them for comparison. Calls follow the shape of the dose curve; as a rule, active = well fitted inhibition curve with a large enough effect; inconclusive = small, poorly fitted or top-dose-only effect, or effect the other way; inactive = flat fitted curve, though single readings scatter. A potency beside an inconclusive call is a rough fit, not a confirmed value.
Assay: qHTS screen for small molecules that inhibit ELG1-dependent DNA repair in human embryonic kidney (HEK293T) cells expressing luciferase-tagged ELG1; also: nearly all actives have a fitted effect of over 55% in size
Settings: HEK293T ELG1-luciferase reporter, luminescence, 16 h, DNA damage induced by 5-fluorouridine; series mostly up to 46.1 µM
Outline: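 Luminescence from the luciferase reporter, measured 30 min after ONE-Glo reagent at room temperature, was the read-out. Beforehand, 2,000 cells per well were exposed for 16 hr at 37 °C to 5-fluorouridine together with compound or vehicle.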
With `O=C(NC1CCCCCC1)c1cccc(N2CCCC2=O)c1` the Potency was inconclusive: 8.2 µM [activator, partial curve].
With `COc1ccc(NCC(=O)N/N=C/C=C/c2ccccc2[N+](=O)[O-])cc1` the Potency was “inactive”.
With `Cc1ccccc1C(=O)N1N=C(c2ccc(NS(C)(=O)=O)cc2)CC1c1cccs1` (centres undefined) the Potency was inconclusive: 29.1 µM [inhibitor, single point].
With `CCOC(=O)c1[nH]c(C)c(C(=O)c2ccc(C)cc2)c1C` the Potency was inconclusive: 29.1 µM [activator, single point].
With `COc1cccc(NC(=O)c2ccc3nsnc3c2)c1` the Potency was inconclusive: 13 µM [activator, partial curve].
With `O=C(c1ccc(S(=O)(=O)N2CCCC2)cc1)N1CCCc2ccccc21` the Potency was “inactive”.
For `O=C(NCc1nnc2c(C(F)(F)F)cc(Cl)cn12)c1ccc(Br)o1`, the Potency was inconclusive: 16.4 µM [activator, partial curve, poor fit].
In the case of `COc1cc(C(=O)OCC(=O)Nc2cc(C)on2)c([N+](=O)[O-])cc1OC`, the Potency is reported as “inactive”.
For `C=CCN1C(=O)C(CC(=O)NCC)SC1=Nc1ccc(S(N)(=O)=O)cc1` (centres undefined), the Potency was “inactive”.
In the case of `O=C(CNC(=O)[C@@H]1Cc2ccccc2CN1)Nc1ccc2c(c1)OCCO2`, the Potency is reported as inconclusive: 18.3 µM [activator, partial curve].
For `Cc1cccc(Nc2cc(C)nc3ccccc23)c1`, the Potency was “inactive”.
For `CCC(=O)N1c2ccccc2C(N(C(C)=O)c2ccccc2)CC1C` (centres undefined), the Potency was inconclusive: 7.31 µM [activator, partial curve].
With `COCCn1c(N)c(C(=O)NCC2CCCO2)c2nc3ccccc3nc21` (centres undefined) the Potency was inconclusive: 23.1 µM [inhibitor, partial curve, poor fit].
For `c1ccc(CCc2cn(C[C@H]3CC[C@@H]([C@@H]4CC[C@H](Cn5cc(CCc6ccccc6)nn5)O4)O3)nn2)cc1`, the Potency was inconclusive: 20.6 µM [inhibitor, single point].
For `COc1ccc(C(=O)COC(=O)c2cc(S(=O)(=O)NCc3ccccc3)ccc2O)cc1`, the Potency was “inactive”.
With `CC(=O)N1c2ccccc2C2CCCC[C@H]21` (some centres undefined) the Potency was inconclusive: 29.1 µM [activator, single point].
In the case of `C=CC[C@@H](CC(=O)N(CCO)Cc1ccccc1)C(=O)NCCOC(=O)[C@@H](CC=C)Cc1ccc(F)cc1`, the Potency is reported as inconclusive: 18.3 µM [inhibitor, single point].
With `Cc1ccccc1Nc1nc(N)nc(CSc2nc3ccccc3c(=O)n2C)n1` the Potency was inconclusive: 20.6 µM [inhibitor, single point].
For `O=C(Nc1ccc(N2CCCC2)c(Cl)c1)c1cccs1`, the Potency was inconclusive: 2.06 µM [activator, partial curve].
For `CC(=O)Nc1cc(S(=O)(=O)Nc2ccccc2C)c(C)cc1C`, the Potency was “inactive”.
For `COCCN1Cc2cccc(C(=O)Nc3cccc(-c4nc5ccccc5[nH]4)c3)c2C1=O`, the Potency was active: 4.11 µM.
In the case of `CCOC(=O)/C=C/S(=O)(=O)c1ccc(NC(C)=O)cc1`, the Potency is reported as inconclusive: 18.4 µM [activator, single point].
For `CC1(C)CCC[C@@]2(C)CC=C(C(=O)O)[C@@H]3C[C@]312`, the Potency was “inactive”.
In the case of `O=C(OCc1nnc(-c2ccc(Br)cc2)o1)c1ccco1`, the Potency is reported as “inactive”.
For `COc1ccccc1C1/C(=C(/O)c2ccccc2)C(=O)C(=O)N1CCO` (centres undefined), the Potency was inconclusive: 0.164 µM [activator, single point].
In the case of `CCc1ccc(Nc2cc(C)nc3ncnn23)cc1`, the Potency is reported as inconclusive: 20.6 µM [activator, partial curve, poor fit].
In the case of `CCCCc1ccc(-c2ccc(Br)cc2)nc1`, the Potency is reported as inconclusive: 2.59 µM [activator, full curve].
For `Cn1c(N)c(C(=O)COC(=O)CSc2ccccc2)c(=O)n(C)c1=O`, the Potency was inconclusive: 23.1 µM [activator, partial curve, poor fit].
With `Cc1ccccc1NC(=O)Nc1nnc(Cc2ccc([N+](=O)[O-])cc2)s1` the Potency was inconclusive: 29.1 µM [activator, partial curve, poor fit].
In the case of `CC(NC(=O)COC(=O)CCC(=O)c1ccc(F)cc1)c1ccccc1` (centres undefined), the Potency is reported as “inactive”.
With `Cn1c(N)c(C(=O)CSc2nc(N)cc(=O)[nH]2)c(=O)n(C)c1=O` the Potency was inconclusive: 11.6 µM [activator, partial curve, poor fit].
With `COc1ccc(Cl)cc1NS(=O)(=O)c1ccc2c(c1)NC(=O)CCS2` the Potency was “inactive”.
In the case of `O=C(NCCCc1ccccc1)c1ccc([N+](=O)[O-])cc1Cl`, the Potency is reported as inconclusive: 11.6 µM [activator, partial curve].
For `COc1ccccc1NC(=O)NC1CCCCCCC1`, the Potency was inconclusive: 29.1 µM [activator, single point].
With `CCC(CO)n1c(SCc2cc(=O)oc3cc(C)ccc23)nc2ccccc2c1=O` (centres undefined) the Potency was inconclusive: 23.1 µM [inhibitor, partial curve, poor fit].
For `CCn1c(Cc2ccc(OC)cc2)nnc1SCC(=O)Nc1nc2ccccc2s1`, the Potency was inconclusive: 6.51 µM [inhibitor, single point].
For `O=C(NC(=O)c1cc([N+](=O)[O-])ccc1Cl)C1=C(N2CCCC2)COC1=O`, the Potency was inconclusive: 16.4 µM [activator, single point].
With `COc1ccccc1NC(=O)Nc1ccc(C(N)=O)cc1` the Potency was inconclusive: 16.4 µM [activator, partial curve].
With `Cc1cc(C)n(CCCNCC(O)c2ccccc2)n1` (centres undefined) the Potency was inconclusive: 2.06 µM [activator, partial curve, poor fit].
For `Cc1cccc(NC(=S)N(Cc2cccs2)Cc2cc3cc(C)ccc3[nH]c2=O)c1`, the Potency was inconclusive: 5.8 µM [inhibitor, partial curve].
With `Cc1ccc(S(=O)(=O)N2CCN(C(=O)Cc3ccc4c(c3)OCCO4)CC2)cc1C` the Potency was “inactive”.
For `Cc1nc2ccccc2c2oc(C(=O)NCCCN3CC(C)CC(C)C3)cc12` (centres undefined), the Potency was “inactive”.
For `O=C(O)Cc1ccc(NC(=O)CCN2C(=O)c3ccc([N+](=O)[O-])cc3C2=O)cc1`, the Potency was inconclusive: 29.1 µM [activator, single point].
For `O=C(OCC#CCSc1nc2ccccc2s1)c1ccco1`, the Potency was inconclusive: 13 µM [activator, partial curve].
Potency is read from the fitted curve at half-maximal effect.
